{
  "sequences": {"note": "Protein sequences, listed by entry. Tags and fused reporters are not part of them. Lines headed by an entry give the natural chain unless they say otherwise; changes in a name come on top.", "UniProt P26664": "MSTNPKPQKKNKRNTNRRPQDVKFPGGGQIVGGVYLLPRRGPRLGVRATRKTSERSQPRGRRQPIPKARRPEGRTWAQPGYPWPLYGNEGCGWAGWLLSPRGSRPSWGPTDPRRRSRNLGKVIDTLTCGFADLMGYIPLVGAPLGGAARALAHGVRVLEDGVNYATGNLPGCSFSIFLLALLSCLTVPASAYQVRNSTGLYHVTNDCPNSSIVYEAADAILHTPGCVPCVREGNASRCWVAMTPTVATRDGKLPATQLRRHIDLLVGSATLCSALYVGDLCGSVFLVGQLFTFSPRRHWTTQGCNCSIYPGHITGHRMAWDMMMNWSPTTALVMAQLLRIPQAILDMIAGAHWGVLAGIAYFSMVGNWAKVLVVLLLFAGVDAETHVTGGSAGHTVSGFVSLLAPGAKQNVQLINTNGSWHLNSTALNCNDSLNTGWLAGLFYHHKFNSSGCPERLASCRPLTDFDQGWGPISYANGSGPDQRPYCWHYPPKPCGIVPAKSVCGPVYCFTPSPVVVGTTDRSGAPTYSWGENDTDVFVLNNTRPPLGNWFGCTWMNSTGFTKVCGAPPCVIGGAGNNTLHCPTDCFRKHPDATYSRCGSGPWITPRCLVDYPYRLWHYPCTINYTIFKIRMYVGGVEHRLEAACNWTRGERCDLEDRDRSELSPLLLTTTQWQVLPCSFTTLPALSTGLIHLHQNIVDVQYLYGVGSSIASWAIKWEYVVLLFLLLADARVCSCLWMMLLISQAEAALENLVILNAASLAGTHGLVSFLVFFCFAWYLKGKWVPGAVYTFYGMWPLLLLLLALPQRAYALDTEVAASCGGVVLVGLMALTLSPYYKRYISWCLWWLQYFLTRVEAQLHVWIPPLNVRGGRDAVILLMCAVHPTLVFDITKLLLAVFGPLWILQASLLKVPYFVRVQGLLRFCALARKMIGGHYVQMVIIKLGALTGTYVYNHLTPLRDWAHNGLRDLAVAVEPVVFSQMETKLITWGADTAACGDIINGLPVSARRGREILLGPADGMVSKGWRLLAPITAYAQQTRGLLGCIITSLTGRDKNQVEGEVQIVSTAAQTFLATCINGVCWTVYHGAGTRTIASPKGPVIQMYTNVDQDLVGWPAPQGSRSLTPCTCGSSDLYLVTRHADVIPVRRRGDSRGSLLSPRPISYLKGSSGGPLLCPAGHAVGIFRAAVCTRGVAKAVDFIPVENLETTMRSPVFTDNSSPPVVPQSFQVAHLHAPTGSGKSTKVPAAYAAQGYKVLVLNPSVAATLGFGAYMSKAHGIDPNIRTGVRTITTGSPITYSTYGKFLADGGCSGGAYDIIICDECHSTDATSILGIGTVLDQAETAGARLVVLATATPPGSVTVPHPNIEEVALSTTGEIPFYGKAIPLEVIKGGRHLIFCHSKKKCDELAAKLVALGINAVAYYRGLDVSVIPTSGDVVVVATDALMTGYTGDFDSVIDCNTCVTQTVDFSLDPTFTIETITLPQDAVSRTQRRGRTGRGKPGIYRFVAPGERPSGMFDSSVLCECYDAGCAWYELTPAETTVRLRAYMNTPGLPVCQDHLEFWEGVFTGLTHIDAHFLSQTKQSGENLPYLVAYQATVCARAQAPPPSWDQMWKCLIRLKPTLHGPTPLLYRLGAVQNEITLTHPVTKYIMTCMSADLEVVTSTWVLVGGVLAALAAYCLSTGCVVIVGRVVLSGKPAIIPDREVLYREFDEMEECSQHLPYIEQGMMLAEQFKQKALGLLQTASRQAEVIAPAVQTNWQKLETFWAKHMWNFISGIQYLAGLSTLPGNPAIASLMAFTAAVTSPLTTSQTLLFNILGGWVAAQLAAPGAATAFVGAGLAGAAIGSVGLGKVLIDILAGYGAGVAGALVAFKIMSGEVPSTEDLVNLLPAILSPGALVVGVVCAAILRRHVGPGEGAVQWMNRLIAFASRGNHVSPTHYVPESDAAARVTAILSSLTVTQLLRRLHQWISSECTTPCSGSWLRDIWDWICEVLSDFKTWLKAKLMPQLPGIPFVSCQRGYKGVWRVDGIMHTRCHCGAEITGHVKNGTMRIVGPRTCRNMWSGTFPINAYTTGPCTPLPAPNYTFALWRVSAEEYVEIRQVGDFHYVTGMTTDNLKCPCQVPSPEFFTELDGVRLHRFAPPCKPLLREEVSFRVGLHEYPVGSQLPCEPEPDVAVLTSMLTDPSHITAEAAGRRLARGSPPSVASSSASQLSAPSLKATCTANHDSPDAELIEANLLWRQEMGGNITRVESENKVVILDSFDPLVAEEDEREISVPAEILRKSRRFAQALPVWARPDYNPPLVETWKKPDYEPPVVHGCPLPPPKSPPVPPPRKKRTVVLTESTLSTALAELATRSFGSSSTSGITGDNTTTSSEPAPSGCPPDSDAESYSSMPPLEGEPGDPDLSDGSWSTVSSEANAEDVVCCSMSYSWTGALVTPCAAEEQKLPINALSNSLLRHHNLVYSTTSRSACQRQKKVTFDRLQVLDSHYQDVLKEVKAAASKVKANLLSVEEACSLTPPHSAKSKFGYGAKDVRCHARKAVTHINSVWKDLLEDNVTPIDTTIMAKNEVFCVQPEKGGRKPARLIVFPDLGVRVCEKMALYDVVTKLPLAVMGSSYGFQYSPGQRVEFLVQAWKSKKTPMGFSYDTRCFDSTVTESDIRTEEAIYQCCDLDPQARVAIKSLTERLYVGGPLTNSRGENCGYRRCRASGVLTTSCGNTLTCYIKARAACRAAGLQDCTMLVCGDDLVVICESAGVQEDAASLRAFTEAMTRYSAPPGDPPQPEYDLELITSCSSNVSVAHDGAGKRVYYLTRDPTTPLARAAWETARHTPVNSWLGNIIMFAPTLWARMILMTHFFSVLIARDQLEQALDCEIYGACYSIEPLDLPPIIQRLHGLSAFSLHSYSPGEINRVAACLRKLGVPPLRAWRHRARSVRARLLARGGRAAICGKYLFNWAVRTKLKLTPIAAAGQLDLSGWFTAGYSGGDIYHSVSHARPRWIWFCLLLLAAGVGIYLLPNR"},
  "source": "patent US20240316118A1",
  "about": "“ANTIVIRAL NASAL SPRAY FLAVONOIDS?BEE PROPOLIS” (priority 2022, published 2024)",
  "origin": "cited, not measured here",
  "key": {"DENV-3": {"tested_on": "DENV-3", "conditions": "absence or presence of enhancing antibody, P<0.001"}, "DENV-2": {"tested_on": "DENV-2", "conditions": "absence or presence of enhancing antibody, P<0.001"}, "Rotavirus virions": {"tested_on": "Rotavirus virions", "conditions": "Rhesus Rotavirus, Ref. [20]"}, "NS3 protease": {"target": "NS3 protease (Hepatitis C virus genotype 1a, UniProt P26664)"}},
  "note": "For part of these data: At least one compound was matched to its structure with a doubt left. Some of these results come from one statement about several compounds together.",
  "data": [
    {"smiles": "O=c1c(O)c(-c2ccc(O)c(O)c2)oc2cc(O)ccc12", "note": "[fisetin]", "values": [
      {"measurement": "inhibition of DENV-3 infection", "setting": "DENV-3", "value": "> 90", "unit": "%"},
      {"measurement": "inhibition of DENV-2 infection", "setting": "DENV-2", "value": "> 90", "unit": "%"}
    ]},
    {"smiles": "O=c1cc(-c2ccc(O)cc2)oc2c([C@@H]3O[C@H](CO)[C@@H](O)[C@H](O)[C@H]3O)c(O)cc(O)c12", "note": "[Vitexin]", "values": [
      {"measurement": "Molecular Mechanisms: viral replication", "setting": "Rotavirus virions", "value": "Inhibition viral"}
    ]},
    {"smiles": "O=c1c(O)c(-c2ccc(O)c(O)c2)oc2cc(O)cc(O)c12", "note": "[Quercetin, 2-(3,4-dihydroxyphenyl)-3,5,7-trihydroxy-4H-1 benzopyran-4-one]", "values": [
      {"measurement": "inhibition of DENV-3 infection", "setting": "DENV-3", "value": "> 90", "unit": "%"},
      {"measurement": "inhibition of DENV-2 infection", "setting": "DENV-2", "value": "> 90", "unit": "%"}
    ]},
    {"smiles": "O=c1c(O[C@@H]2O[C@H](CO)[C@@H](O)[C@H](O)[C@H]2O)c(-c2ccc(O)c(O)c2)oc2cc(O)cc(O)c12", "note": "[Isoquercetin]", "values": [
      {"measurement": "Molecular Mechanisms: HCV replication", "setting": "NS3 protease", "value": "Inhibition of HCV"}
    ]}
  ]
}
